The effect of the compound repeats well; differences between the knockouts mostly do not.
System: HCC-38
Assay: relative cell number vs DMSO control (72 h) (% of DMSO); higher = less growth inhibition (more cells)
Experimental: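 QMAP-Seq: a pool of 5 breast cancer cell lines (ZR-75-1, SKBR3, HCC-38, MDA-MB-231, BT-20), each carrying 12 doxycycline-inducible Cas9 sgRNA perturbations (11 knockouts plus non-targeting sgNT), was treated with compounds for 72 h at four 10-fold doses (10 nM-10 uM or 1 nM-1 uM range). Barcodes were amplified and sequenced, and cell number was interpolated from 293T spike-in standard curves. The result is expressed as % of the median of DMSO wells. Two biological replicates.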

CC[C@]1(O)C[C@H]2CN(CCc3c([nH]c4ccccc34)[C@@](C(=O)OC)(c3cc4c(cc3OC)N(C=O)[C@H]3[C@@](O)(C(=O)OC)[C@H](OC(C)=O)[C@]5(CC)C=CCN6CC[C@]43[C@@H]65)C2)C1 [Vincristine]
Conditions	relative cell number
sgRNA knockout: sgATF3, 10 nM	22.5
sgRNA knockout: sgATF3, 100 nM	19.5
sgRNA knockout: sgATF3, 1000 nM	22.6
sgRNA knockout: sgATF3, 10000 nM	21.9
sgRNA knockout: sgATF4, 10 nM	18.1
sgRNA knockout: sgATF4, 100 nM	19.9
sgRNA knockout: sgATF4, 1000 nM	20.7
sgRNA knockout: sgATF4, 10000 nM	22.9
sgRNA knockout: sgATF6, 10 nM	20.04
sgRNA knockout: sgATF6, 100 nM	22.4
sgRNA knockout: sgATF6, 1000 nM	16.6
sgRNA knockout: sgATF6, 10000 nM	21.4
sgRNA knockout: sgATG7, 10 nM	22.9
sgRNA knockout: sgATG7, 100 nM	24.3
sgRNA knockout: sgATG7, 1000 nM	23.2
sgRNA knockout: sgATG7, 10000 nM	22.6
sgRNA knockout: sgERN1, 10 nM	24.9
sgRNA knockout: sgERN1, 100 nM	23.3
sgRNA knockout: sgERN1, 1000 nM	23.38
sgRNA knockout: sgERN1, 10000 nM	19.7
sgRNA knockout: sgHSF1, 10 nM	25.9
sgRNA knockout: sgHSF1, 100 nM	26
sgRNA knockout: sgHSF1, 1000 nM	25.6
sgRNA knockout: sgHSF1, 10000 nM	34.1
sgRNA knockout: sgHSF2, 10 nM	20.6
sgRNA knockout: sgHSF2, 100 nM	23.5
sgRNA knockout: sgHSF2, 1000 nM	26.3
sgRNA knockout: sgHSF2, 10000 nM	24.9
sgRNA knockout: sgKEAP1, 10 nM	24.8
sgRNA knockout: sgKEAP1, 100 nM	23.1
sgRNA knockout: sgKEAP1, 1000 nM	29.8
sgRNA knockout: sgKEAP1, 10000 nM	24.09
sgRNA knockout: sgNFE2L2, 10 nM	19.8
sgRNA knockout: sgNFE2L2, 100 nM	17.5
sgRNA knockout: sgNFE2L2, 1000 nM	17.2
sgRNA knockout: sgNFE2L2, 10000 nM	23.2
sgRNA knockout: sgSLC35F2, 10 nM	26.2
sgRNA knockout: sgSLC35F2, 100 nM	19.55
sgRNA knockout: sgSLC35F2, 1000 nM	20.1
sgRNA knockout: sgSLC35F2, 10000 nM	21.4
sgRNA knockout: sgXBP1, 10 nM	19.33
sgRNA knockout: sgXBP1, 100 nM	25
sgRNA knockout: sgXBP1, 1000 nM	26
sgRNA knockout: sgXBP1, 10000 nM	26.9

COc1cc([C@@H]2c3cc4c(cc3[C@@H](O[C@@H]3O[C@@H]5CO[C@@H](C)O[C@H]5[C@H](O)[C@H]3O)[C@H]3COC(=O)[C@H]23)OCO4)cc(OC)c1O [Etoposide]
Conditions	relative cell number
sgRNA knockout: sgATF3, 10 nM	75
sgRNA knockout: sgATF3, 100 nM	90.1
sgRNA knockout: sgATF3, 1000 nM	34.7
sgRNA knockout: sgATF3, 10000 nM	22.6
sgRNA knockout: sgATF4, 10 nM	63.3
sgRNA knockout: sgATF4, 100 nM	75
sgRNA knockout: sgATF4, 1000 nM	26.97
sgRNA knockout: sgATF4, 10000 nM	18.4
sgRNA knockout: sgATF6, 10 nM	67.2
sgRNA knockout: sgATF6, 100 nM	78.1
sgRNA knockout: sgATF6, 1000 nM	35.5
sgRNA knockout: sgATF6, 10000 nM	20.8
sgRNA knockout: sgATG7, 10 nM	73.6
sgRNA knockout: sgATG7, 100 nM	79
sgRNA knockout: sgATG7, 1000 nM	33.1
sgRNA knockout: sgATG7, 10000 nM	24.4
sgRNA knockout: sgERN1, 10 nM	74.3
sgRNA knockout: sgERN1, 100 nM	74.3
sgRNA knockout: sgERN1, 1000 nM	33.5
sgRNA knockout: sgERN1, 10000 nM	18.4
sgRNA knockout: sgHSF1, 10 nM	60.1
sgRNA knockout: sgHSF1, 100 nM	74.3
sgRNA knockout: sgHSF1, 1000 nM	30.6
sgRNA knockout: sgHSF1, 10000 nM	23.5
sgRNA knockout: sgHSF2, 10 nM	79.1
sgRNA knockout: sgHSF2, 100 nM	93.3
sgRNA knockout: sgHSF2, 1000 nM	39.8
sgRNA knockout: sgHSF2, 10000 nM	24.4
sgRNA knockout: sgKEAP1, 10 nM	68.278
sgRNA knockout: sgKEAP1, 100 nM	81.9
sgRNA knockout: sgKEAP1, 1000 nM	30.9
sgRNA knockout: sgKEAP1, 10000 nM	22
sgRNA knockout: sgNFE2L2, 10 nM	57.8
sgRNA knockout: sgNFE2L2, 100 nM	65.1
sgRNA knockout: sgNFE2L2, 1000 nM	24.5
sgRNA knockout: sgNFE2L2, 10000 nM	15.3
sgRNA knockout: sgSLC35F2, 10 nM	71
sgRNA knockout: sgSLC35F2, 100 nM	89.2
sgRNA knockout: sgSLC35F2, 1000 nM	37.2
sgRNA knockout: sgSLC35F2, 10000 nM	20.5
sgRNA knockout: sgXBP1, 10 nM	57.5
sgRNA knockout: sgXBP1, 100 nM	68.6
sgRNA knockout: sgXBP1, 1000 nM	27.5
sgRNA knockout: sgXBP1, 10000 nM	17.9

CC(=O)Nc1nc(C)c(S(=O)(=O)Nc2ccc(C(O)(C(F)(F)F)C(F)(F)F)cc2)s1 [SR1001]
Conditions	relative cell number
sgRNA knockout: sgATF3, 10 nM	103
sgRNA knockout: sgATF3, 100 nM	99.3
sgRNA knockout: sgATF3, 1000 nM	121
sgRNA knockout: sgATF3, 10000 nM	106
sgRNA knockout: sgATF4, 10 nM	100
sgRNA knockout: sgATF4, 100 nM	93.8
sgRNA knockout: sgATF4, 1000 nM	111
sgRNA knockout: sgATF4, 10000 nM	103
sgRNA knockout: sgATF6, 10 nM	101
sgRNA knockout: sgATF6, 100 nM	92.6
sgRNA knockout: sgATF6, 1000 nM	118
sgRNA knockout: sgATF6, 10000 nM	108
sgRNA knockout: sgATG7, 10 nM	97.7
sgRNA knockout: sgATG7, 100 nM	95.1
sgRNA knockout: sgATG7, 1000 nM	119
sgRNA knockout: sgATG7, 10000 nM	104
sgRNA knockout: sgERN1, 10 nM	91.5
sgRNA knockout: sgERN1, 100 nM	98.5
sgRNA knockout: sgERN1, 1000 nM	122
sgRNA knockout: sgERN1, 10000 nM	112
sgRNA knockout: sgHSF1, 10 nM	122
sgRNA knockout: sgHSF1, 100 nM	106
sgRNA knockout: sgHSF1, 1000 nM	129
sgRNA knockout: sgHSF1, 10000 nM	128
sgRNA knockout: sgHSF2, 10 nM	102
sgRNA knockout: sgHSF2, 100 nM	96.8
sgRNA knockout: sgHSF2, 1000 nM	125
sgRNA knockout: sgHSF2, 10000 nM	117
sgRNA knockout: sgKEAP1, 10 nM	117
sgRNA knockout: sgKEAP1, 100 nM	100
sgRNA knockout: sgKEAP1, 1000 nM	147
sgRNA knockout: sgKEAP1, 10000 nM	137
sgRNA knockout: sgNFE2L2, 10 nM	91.5
sgRNA knockout: sgNFE2L2, 100 nM	100
sgRNA knockout: sgNFE2L2, 1000 nM	106
sgRNA knockout: sgNFE2L2, 10000 nM	99.3
sgRNA knockout: sgSLC35F2, 10 nM	91.9
sgRNA knockout: sgSLC35F2, 100 nM	104
sgRNA knockout: sgSLC35F2, 1000 nM	113
sgRNA knockout: sgSLC35F2, 10000 nM	99.6
sgRNA knockout: sgXBP1, 10 nM	90.8
sgRNA knockout: sgXBP1, 100 nM	99.3
sgRNA knockout: sgXBP1, 1000 nM	117
sgRNA knockout: sgXBP1, 10000 nM	103

CS(=O)(=O)N1CCN(Cc2cc3nc(-c4cccc5[nH]ncc45)nc(N4CCOCC4)c3s2)CC1 [GDC0941]
Conditions	relative cell number
sgRNA knockout: sgATF3, 10 nM	94.4
sgRNA knockout: sgATF3, 100 nM	93.4
sgRNA knockout: sgATF3, 1000 nM	81.2
sgRNA knockout: sgATF3, 10000 nM	38.8
sgRNA knockout: sgATF4, 10 nM	79.9
sgRNA knockout: sgATF4, 100 nM	108
sgRNA knockout: sgATF4, 1000 nM	82.8
sgRNA knockout: sgATF4, 10000 nM	34.4
sgRNA knockout: sgATF6, 10 nM	99.8
sgRNA knockout: sgATF6, 100 nM	94.3
sgRNA knockout: sgATF6, 1000 nM	71.5
sgRNA knockout: sgATF6, 10000 nM	43.6
sgRNA knockout: sgATG7, 10 nM	80
sgRNA knockout: sgATG7, 100 nM	104
sgRNA knockout: sgATG7, 1000 nM	77.6
sgRNA knockout: sgATG7, 10000 nM	39.9
sgRNA knockout: sgERN1, 10 nM	86.5
sgRNA knockout: sgERN1, 100 nM	98.8
sgRNA knockout: sgERN1, 1000 nM	70.1
sgRNA knockout: sgERN1, 10000 nM	39.8
sgRNA knockout: sgHSF1, 10 nM	96.9
sgRNA knockout: sgHSF1, 100 nM	82.1
sgRNA knockout: sgHSF1, 1000 nM	70
sgRNA knockout: sgHSF1, 10000 nM	39
sgRNA knockout: sgHSF2, 10 nM	83.7
sgRNA knockout: sgHSF2, 100 nM	109
sgRNA knockout: sgHSF2, 1000 nM	73.2
sgRNA knockout: sgHSF2, 10000 nM	35.1
sgRNA knockout: sgKEAP1, 10 nM	118
sgRNA knockout: sgKEAP1, 100 nM	84.5
sgRNA knockout: sgKEAP1, 1000 nM	72
sgRNA knockout: sgKEAP1, 10000 nM	48.1
sgRNA knockout: sgNFE2L2, 10 nM	79.5
sgRNA knockout: sgNFE2L2, 100 nM	103
sgRNA knockout: sgNFE2L2, 1000 nM	77.7
sgRNA knockout: sgNFE2L2, 10000 nM	33.6
sgRNA knockout: sgSLC35F2, 10 nM	82.1
sgRNA knockout: sgSLC35F2, 100 nM	98.3
sgRNA knockout: sgSLC35F2, 1000 nM	82.86
sgRNA knockout: sgSLC35F2, 10000 nM	39
sgRNA knockout: sgXBP1, 10 nM	82.2
sgRNA knockout: sgXBP1, 100 nM	108
sgRNA knockout: sgXBP1, 1000 nM	85.3
sgRNA knockout: sgXBP1, 10000 nM	38.3

From the supplement of paper PMC7661543
